The values that follow come from patent publication US6936735B2, “Photostable cationic organic sunscreen compounds and compositions obtained therefrom” (EMD Chemicals, Inc., priority 2002, dated 2005).

Data set [1] in a line: Hair substantivity, product uptake from aqueous-ethanolic solution. The settings on record: aqueous-ethanolic solution (30:70%).
Data set [2] can be described thus: Hair substantivity, product uptake from aqueous solution. The following applies: water solution, 1% concentration, 100 ml on 1 g hair.
The mark [3] stands for this setting: tested at 0.25%, corrected to a 1% solution.

Regarding `CCCCCCCCCCCC[N+](C)(C)CCCNC(=O)c1ccc(N(C)C)cc1.Cc1ccc(S(=O)(=O)[O-])cc1` [Escalol HP ®-610], in data set [1] (setting [3]), the “% Relative Product Uptake by Hair, 0 min” value is given as 0%; the “% Relative Product Uptake by Hair, 2 min” value is on record as 2%; the “% Relative Product Uptake by Hair, 5 min” value is 3%; the “% Relative Product Uptake by Hair, 10 min” value is on record as 3%.
For the compound “Bis-N-[3(N,N-dimethylamino)propyl]-3,4,5-trimethoxy benzylidene malonamide bis ethylsulfate [Example 3]”, the “% Relative Product Uptake by Hair, 0 min” value in data set [2] (0 min) and in data set [1] (1% concentration) was 0% throughout. Besides, the results for the “% Relative Product Uptake by Hair, 2 min” value in data set [2] (2 min) and in data set [1] (1% concentration) were 48% and 5%, respectively. Moreover, the “% Relative Product Uptake by Hair, 5 min” value was 56% in data set [2] (5 min) and 13% in data set [1] (1% concentration). The “% Relative Product Uptake by Hair, 10 min” value stood at 59% in data set [2] (10 min) and 18% in data set [1] (1% concentration).
